Assay results published in patent US7700639B2, “Chemical compounds, process for their preparation and use thereof” (Merial Limited, priority 2005, dated 2010).
Some of these results come from one statement about several compounds together.

System: Ctenocephalides felis (Cat flea)
Test: Screening method to test systemicity of compounds against Ctenocephalides felis (artificial dog test, treated bovine blood)
Format: in vivo
Details: test concentration of 5 ppm or less; compound in bovine blood; 10 adults; assessment at 24 and 48 hours after application

## CC(=NOC(=O)N(C)c1c([S+]([O-])C(F)(F)F)c(C#N)nn1-c1c(Cl)cc(C(F)(F)F)cc1Cl)c1ccccc1 (stereo not shown) [Compound 3-02, 1-[2,6-dichloro-4-(trifluoromethyl)phenyl]-5-[methyl({[(1-phenylethylidene)amino]oxy}carbonyl)amino]-4-[(trifluoromethyl)sulfinyl]-1H-pyrazole-3-carbonitrile]
  control of Ctenocephalides felis: at least 80%
